Test results published in PMC10446823.
These are yes or no findings as the source states them, for the method shown. Binding seen in cells or lysates may run through a third protein. Some binding calls cover weakened binding; strength is not graded here. Sequences can lack the tags named with a protein.

Amino acid sequences for entries named in this document (tags omitted).
UniProt P22626: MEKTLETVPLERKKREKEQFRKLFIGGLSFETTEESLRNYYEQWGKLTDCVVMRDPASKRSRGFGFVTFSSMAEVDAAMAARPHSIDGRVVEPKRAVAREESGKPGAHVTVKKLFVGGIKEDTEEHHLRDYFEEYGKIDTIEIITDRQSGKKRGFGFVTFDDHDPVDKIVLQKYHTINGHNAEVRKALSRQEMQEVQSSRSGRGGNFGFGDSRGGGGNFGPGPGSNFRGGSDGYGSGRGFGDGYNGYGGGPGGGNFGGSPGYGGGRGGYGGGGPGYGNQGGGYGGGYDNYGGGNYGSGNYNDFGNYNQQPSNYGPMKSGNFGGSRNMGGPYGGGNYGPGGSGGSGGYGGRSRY
UniProt P25963: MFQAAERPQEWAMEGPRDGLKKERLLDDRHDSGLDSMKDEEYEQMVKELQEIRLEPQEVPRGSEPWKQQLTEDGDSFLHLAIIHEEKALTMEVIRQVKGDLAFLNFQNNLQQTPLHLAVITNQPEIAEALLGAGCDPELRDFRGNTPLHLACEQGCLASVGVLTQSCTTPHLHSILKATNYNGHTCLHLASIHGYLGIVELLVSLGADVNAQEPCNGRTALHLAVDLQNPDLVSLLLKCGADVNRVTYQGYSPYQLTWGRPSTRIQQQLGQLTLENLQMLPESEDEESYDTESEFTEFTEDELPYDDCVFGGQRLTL

B1: IκBε-flag (protein, UniProt O00221 1-500)
chain: MNQRRSESRPGNHRLQAYAEPGKGDSGGAGPLSGSARRGRGGGGAIRVRRPCWSGGAGRGGGPAWAVRLPTVTAGWTWPALRTLSSLRAGPSEPHSPGRRPPRAGRPLCQADPQPGKAARRSLEPDPAQTGPRPARAAGMSEARKGPDEAEESQYDSGIESLRSLRSLPESTSAPASGPSDGSPQPCTHPPGPVKEPQEKEDADGERADSTYGSSSLTYTLSLLGGPEAEDPAPRLPLPHVGALSPQQLEALTYISEDGDTLVHLAVIHEAPAVLLCCLALLPQEVLDIQNNLYQTALHLAVHLDQPGAVRALVLKGASRALQDRHGDTALHVACQRQHLACARCLLEGRPEPGRGTSHSLDLQLQNWQGLACLHIATLQKNQPLMELLLRNGADIDVQEGTSGKTALHLAVETQERGLVQFLLQAGAQVDARMLNGCTPLHLAAGRGLMGISSTLCKAGADSLLRNVEDETPQDLTEESLVLLPFDDLKISGKLLLCTD

Target: hnRNPA2B1 (overexpressed in HEK293 for the co-immunoprecipitation with IκB-flag) (human) (UniProt P22626)
Assay: co-IP; HEK293 transfected with hnRNPA2B1 and IκB-flag; protein A/G-Sepharose beads charged with anti-hnRNPA2B1 antibody or mouse normal serum

Molecule	binding
IκBα-flag (from UniProt P25963 1-317)	binds
B1	binds
